# Measurements: PubChem BioAssay AID1671190 (National Center for Advancing Translational Sciences (NCATS), 2021)
# Sequences of proteins named here, by UniProt entry; tags and fusion partners are left off. A change or cut given only in a name is not applied to a line headed by its entry.
# UniProt P18054: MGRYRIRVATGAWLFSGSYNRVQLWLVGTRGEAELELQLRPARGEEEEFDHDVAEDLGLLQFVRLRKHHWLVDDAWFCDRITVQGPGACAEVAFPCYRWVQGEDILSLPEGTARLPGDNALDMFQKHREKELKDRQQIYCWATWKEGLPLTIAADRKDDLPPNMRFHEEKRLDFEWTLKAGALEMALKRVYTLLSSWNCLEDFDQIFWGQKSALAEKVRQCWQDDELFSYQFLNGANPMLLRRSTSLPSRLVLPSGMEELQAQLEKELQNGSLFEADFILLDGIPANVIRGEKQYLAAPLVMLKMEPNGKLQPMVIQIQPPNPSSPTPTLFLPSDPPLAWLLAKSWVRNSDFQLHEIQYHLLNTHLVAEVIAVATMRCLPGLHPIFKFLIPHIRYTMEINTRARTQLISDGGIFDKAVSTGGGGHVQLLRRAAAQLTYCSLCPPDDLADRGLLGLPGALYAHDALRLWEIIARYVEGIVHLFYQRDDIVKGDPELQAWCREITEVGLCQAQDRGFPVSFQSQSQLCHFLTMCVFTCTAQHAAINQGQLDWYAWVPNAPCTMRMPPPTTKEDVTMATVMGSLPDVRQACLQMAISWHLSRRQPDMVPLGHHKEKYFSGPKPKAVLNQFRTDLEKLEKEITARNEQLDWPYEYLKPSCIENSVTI
# Where “and” joins values, the source holds several entries; their conditions need not be identical. Equal entries are not always repeated. The whole screen tested about 580,000 compounds, of which about 6,100 (1.1%) were called active. Inconclusive results, whose numbers are uncertain, are shown with a selection of clear calls. The call rests on the fitted dose curve; in most records, active means well fitted inhibition curve with a large enough effect; inconclusive means small, poorly fitted or top-dose-only effect, or another doubt; inactive means no such curve, though single readings can be large or run the other way. Where the call is inconclusive, the potency comes from a doubtful curve fit.
# Molecular target: Polyunsaturated fatty acid lipoxygenase ALOX12 (Homo sapiens) (UniProt P18054)
# Assay: Primary qHTS assay for inhibitors of human arachidonate 12S-lipoxygenase (ALOX12): Round 2
# Conditions: purified 12hLO, xylenol orange hydroperoxide absorbance; activity change, negative = inhibition: at 108 µM (top of the series) unless noted
# How it was run: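 Purified human 12hLO (150 nM final) in 25 mM Hepes, 0.01% Triton X-100, pH 7.0 was preincubated 15 min at room temperature with compound. Then 40 uM arachidonic acid was added, 30 min. Hydroperoxide was read by Fe-XO absorbance ratio 573/405 nm.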
# On the % scale 0 is the no-effect control and ±100 the full control effect; potency means the concentration at half of the fitted maximal effect.
Compound,Potency,"activity change, negative = inhibition"
Cc1ccc([C@@H]2[C@@H]3C(=O)N(c4ccccc4)C(=O)[C@@H]3[C@]3(C)C(=O)N(Cc4ccc(-c5ccccc5)cc4)CC(=O)N23)o1,"inconclusive: 7.94 µM [inhibitor, partial curve, poor fit]",–
Cc1cccc(C)c1NC(=O)Cn1nc(-c2cccs2)ccc1=O,–,inactive: -0.0416%
N=c1c2c(ncn1CCCO)Oc1c(ccc3ccccc13)C2c1ccccc1 (configuration not stated),"inconclusive: 112 µM [inhibitor, single point]",–
CC(=O)c1ccc(N(C(=O)CNC(=O)c2ccco2)C(C(=O)NCC2CCCO2)c2ccccc2)cc1 (configuration not stated),"inconclusive: 0.0891 µM [inhibitor, full curve, poor fit]",–
Cc1ccc2c(c1)N(CCCC(=O)Nc1cccc(C(F)(F)F)c1)C(=O)CO2,"inconclusive: 63.1 µM [inhibitor, partial curve, poor fit]",–
CSCCOC(=O)c1[nH]c2c(c1C)C(=O)CC(c1ccco1)C2 (configuration not stated),–,inactive: 344%
Cc1cc(C(=O)OCC(=O)NC2CCCCC2C)c2ccccc2n1 (configuration not stated),–,inactive: -1.07%
CCCCOc1cc(C(=O)NCCN(CC)CC)c2ccccc2n1,"inactive and inconclusive: 12.8 µM [inhibitor, partial curve, poor fit] and inconclusive: 28.2 µM [inhibitor, partial curve]",–
C[C@H](CO)N1C[C@H](C)[C@H](CN(C)Cc2cncnc2)Oc2cc(Br)ccc2S1(=O)=O,"inconclusive: 3.98 µM [inhibitor, full curve, poor fit]",–
O=C(O)c1ccccc1CSc1nnc2c(n1)[nH]c1ccccc12,"inconclusive: 50.1 µM [inhibitor, partial curve, poor fit]",–
CCN(Cc1cccs1)C(=O)CN1CCN(S(=O)(=O)c2ccc3c(c2)OCCCO3)CC1,"inconclusive: 0.224 µM [inhibitor, full curve, poor fit]",–
C[C@@H]1CN=C2N(CCNC(=O)CCC3CCCCC3)[C@H](Cc3ccc(O)cc3)CN21,"inconclusive: 35.5 µM [inhibitor, partial curve, poor fit]",–
O=C(CSc1nc2ccccc2nc1N1CCCC1)NCc1ccc(F)cc1,–,inactive: -27.2%
COc1ccccc1C(=O)N1CCn2c(nnc2C2CCNCC2)C1,"inconclusive: 10 µM [inhibitor, full curve]",–
ONC(=Nc1ccc(Cl)cc1)c1ccccc1Cl,–,inconclusive: -39.6% [inhibitor]
OCc1ccccc1SSc1ccccc1CO,"inconclusive: 7.94 µM [inhibitor, full curve, poor fit]",–

# Complete entries as entered above:
# `OCc1ccccc1SSc1ccccc1CO` reads Potency: inconclusive: 7.94 µM [inhibitor, full curve, poor fit]
# `N=c1c2c(ncn1CCCO)Oc1c(ccc3ccccc13)C2c1ccccc1` (configuration not stated) reads Potency: inconclusive: 112 µM [inhibitor, single point]

# The list continues:

Compound,Potency,"activity change, negative = inhibition"
Cc1ccc(C)c(NC(=O)C(C)NS(=O)(=O)c2ccc3c(c2)CCN3C(=O)N2CCCC2)c1 (configuration not stated),"inconclusive: 89.1 µM [inhibitor, single point]",–
Cc1cc(Cl)ccc1NC(=O)Cn1cnc2c1c(=O)n(C)c(=O)n2C,–,inactive: -25.8%
CCN1CCN(c2ncc(C(=O)Nc3cc(Cl)c(OC)cc3OC)c3ccccc23)CC1,"inconclusive: 44.7 µM [inhibitor, single point]",–
O=C(Nc1nc(C23CC4CC(CC(C4)C2)C3)cs1)c1cccnc1,–,inactive: 16%
O=C(CSc1nc(O)cc(=O)[nH]1)Nc1ccc2c(c1)CCC2,"inconclusive: 28.2 µM [inhibitor, partial curve]",–
CC(=O)c1ccc(NC(=O)COC(=O)c2ccccc2N=Nc2ccc(N(C)C)cc2)cc1,–,inactive: 0.333%
O/N=C1\CCCc2c1nc(-c1ccccc1F)n2O,"inconclusive: 35.5 µM [inhibitor, single point]",–
CN1c2ccsc2/C(=N/Nc2ccccc2)CS1(=O)=O,"inconclusive: 28.2 µM [inhibitor, partial curve, poor fit]",–
CC(=O)Nc1c(O)nc(SCC(=O)Nc2nnc(CC(C)C)s2)[nH]c1=O,"inconclusive: 35.5 µM [inhibitor, single point]",–
CC(C)(C)n1nnnc1C(c1cccnc1)N1CCN(C2CCCCC2)CC1 (configuration not stated),–,inactive: 8.81%
COc1cc(NC(C(=O)Nc2cccc(C(C)=O)c2)c2ccccc2)cc(OC)c1OC (configuration not stated),–,inactive: 7.76%
COc1cc(Cl)c(C)cc1NC(=O)c1nc2ccccc2nc1N1CCCCC1,–,inactive: -1.05%
Cc1ccc(-n2ccn(CC(=O)NCCc3ccccc3)c(=O)c2=O)cc1C,inactive,–
CN(Cc1ccccc1)C(=O)c1cc(=O)[nH]c2ccccc12,"inconclusive: 112 µM [inhibitor, single point]",–
COc1cc(C(=O)OCC(=O)Nc2c(F)cccc2F)cc(OC)c1C,–,inactive: -4.78%
Cc1ccc(C(=O)Nc2sc(C)c(-c3ccccc3)c2C(N)=O)cc1[N+](=O)[O-],"inconclusive: 2.51 µM [inhibitor, full curve, poor fit]",–
